In patent US9540694:
Results are given in words; binding and its absence hold for the method and conditions named. For some of these results: In cells and extracts the contact can be indirect. Some results given as binding are weak or reduced against the parent protein; the word gives no strength. For some of these results: Tags and fused reporters may be left off the sequences shown. Each block holds one binder with its values, some of them ahead of it.

Sequences of proteins named here, by UniProt entry; tags and fusion partners are left off. A change or cut given only in a name is not applied to a line headed by its entry. Residues count along the entry.
UniProt P84022: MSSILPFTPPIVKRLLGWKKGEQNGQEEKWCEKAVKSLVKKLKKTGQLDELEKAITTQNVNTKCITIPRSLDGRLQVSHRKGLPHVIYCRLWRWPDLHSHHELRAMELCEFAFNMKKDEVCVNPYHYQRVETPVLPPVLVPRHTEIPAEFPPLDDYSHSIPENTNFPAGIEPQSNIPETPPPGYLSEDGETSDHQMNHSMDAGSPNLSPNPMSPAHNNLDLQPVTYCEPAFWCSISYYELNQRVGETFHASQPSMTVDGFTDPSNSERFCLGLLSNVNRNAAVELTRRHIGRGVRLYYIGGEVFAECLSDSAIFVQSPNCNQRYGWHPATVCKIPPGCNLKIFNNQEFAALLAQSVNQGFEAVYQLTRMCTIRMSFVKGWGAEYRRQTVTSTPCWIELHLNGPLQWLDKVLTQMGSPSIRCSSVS
Smad3: residues 2-425 of P84022

Legend:
Flag-tag Smad3 [1] = target: Flag-tag Smad3 (UniProt P84022); experiment: co-immunoprecipitation (anti-myc IP, anti-flag blot) from COS1 cells
Flag-tag Smad3 [2] = target: Flag-tag Smad3 (UniProt P84022); experiment: co-immunoprecipitation (anti-myc IP, anti-flag blot) from COS1 cells, with or without 4 ng/ml TGF-b
Smad3 = Smad3 (UniProt P84022); experiment: summary of coIP and BiFC
[3] = target: Smad3 fused with the C-terminal part of Yellow Fluorescent protein (YFP) (UniProt P84022); experiment: Bimolecular Fluorescence Complementation in cells

binding (Flag-tag Smad3 [1]): binds
binding (Flag-tag Smad3 [2]): binds
B1: myc-tag HEYL (protein, UniProt Q9NQ87 1-328, looked up, not shown: small tags and cut ends)
chain: MKRPKEPSGSDGESDGPIDVGQEGQLSQMARPLSTPSSSQMQARKKHRGIIEKRRRDRINSSLSELRRLVPTAFEKQGSSKLEKAEVLQMTVDHLKMLHATGGTGFFDARALAVDFRSIGFRECLTEVIRYLGVLEGPSSRADPVRIRLLSHLNSYAAEMEPSPTPTGPLAFPAWPWSFFHSCPGLPALSNQLAILGRVPSPVLPGVSSPAYPIPALRTAPLRRATGIILPARRNVLPSRGASSTRRARPLERPATPVPVAPSSRAARSSHIAPLLQSSSPTPPGPTGSAAYVAVPTPNSSSPGPAGRPAGAMLYHSWVSEITEIGAF

binding (Smad3): binds
B2: HEYL (protein, UniProt Q9NQ87 1-328, looked up)
chain: B1 chain

binding [3]: binds
B3: HEYL fused with the N-terminal part of Yellow Fluorescent protein (YFP) (protein, UniProt Q9NQ87 1-328, looked up, not shown: large carriers)
chain: B1 chain
